Measured values published in publication PMC545800.

Target: tetratricopeptide repeat (TPR) domain of human PEX5 (Gal4pBD-TPR, plasmid hP87) (Homo sapiens)
Experiment: two-hybrid; yeast strain PCY3 co-transformed with Gal4pAD-16mer (pGAD.GH) and Gal4pBD-TPR of PEX5 (pAH987 yeast or hP87 human); quantitative beta-galactosidase activity, cells grown in SC-leu-trp at 30°C; lower limit of around 10 Miller Units per mg protein for a productive interaction

binding: no binding
Binder: EEVIRKIAEGLNKAKF [carboxy-terminal 16-mer of Archaeoglobus fulgidus 2-nitropropane dioxygenase (Gal4pAD-16mer)]

Results are given in words; binding and its absence hold for the method and conditions named.
